Assay results published in patent US10308650B2, “Pesticidally active tetracyclic derivatives with sulfur containing substituents” (Syngenta Participations AG, priority 2014, dated 2019).
Some results were stated once for a whole list of compounds, not compound by compound. At least one structure is not confirmed: it was looked up by name or label, or the drawing left a doubt.

Test system: Thrips tabaci (Onion Thrips)
Assay: Activity against Thrips tabaci: feeding/contact activity
Type: in vivo
Details: application rate of 200 ppm; sunflower leaf discs, thrips population of mixed ages; 6 days after infestation
Protocol: Example B12: Activity Against Thrips tabaci (Onion Thrips) Feeding/Contact Activity
Sunflower leaf discs were placed on agar in 24-well microtiter plates and sprayed with aqueous test solutions prepared from 10,000 ppm DMSO stock solutions. After drying the leaf discs were infested with a thrips population of mixed ages. The samples were assessed for mortality 6 days after infestation.

Q: With CCS(=O)(=O)c1cc2nc(C(F)(F)F)cnc2cc1-c1nc2cc(C(F)(F)F)ncc2n1C [Compound A29] as the molecule, how does the mortality read?
A: at least 80%

Q: For CCS(=O)(=O)c1cc2cc(C3CC3)ccc2nc1-c1nc2cc(C(F)(F)F)ncc2n1C [Compound A51], which mortality is on record?
A: at least 80%
